Reference: doi:10.1101/2022.04.25.489355
Results are given in words; binding and its absence hold for the method and conditions named. Binding seen in cells or lysates may run through a third protein. Some binding calls cover weakened binding; strength is not graded here. Tags and fused reporters may be left off the sequences shown.

Chains of the proteins cited; added tags and fusions are not shown.
UniProt P84077: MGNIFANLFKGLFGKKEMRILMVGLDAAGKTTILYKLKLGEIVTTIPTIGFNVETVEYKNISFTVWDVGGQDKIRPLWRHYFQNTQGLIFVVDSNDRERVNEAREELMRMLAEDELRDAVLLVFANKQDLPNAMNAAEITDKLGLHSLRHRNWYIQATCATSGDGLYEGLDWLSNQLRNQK
UniProt P61204: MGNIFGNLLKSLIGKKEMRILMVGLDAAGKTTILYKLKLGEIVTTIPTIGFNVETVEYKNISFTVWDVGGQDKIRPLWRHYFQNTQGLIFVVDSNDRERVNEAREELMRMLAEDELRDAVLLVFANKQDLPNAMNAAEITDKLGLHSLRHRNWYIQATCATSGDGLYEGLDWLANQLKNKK

Molecular target: T1, GST-GGA3-GAT recombinant fusion protein (UniProt Q9NZ52)
T1 sequence: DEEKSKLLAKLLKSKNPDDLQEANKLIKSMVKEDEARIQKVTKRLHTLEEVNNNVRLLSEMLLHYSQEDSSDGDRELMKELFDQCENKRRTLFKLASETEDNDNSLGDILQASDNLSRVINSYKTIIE
Assay: pull-down

| binding | Substance |
| --- | --- |
| binds | mNeonGreen (mNG)-tagged ARF1 (from UniProt P84077 1-181) |
| binds | mNeonGreen (mNG)-tagged ARF3 (from UniProt P61204 1-181) |
